From patent publication US20250114371A1, “BIOMARKER AND PATIENT SELECTION IN TREATMENT FOR MYELOFIBROSIS” (GlaxoSmithKline LLC, priority 2021, published 2025)
For at least one compound, name, drawing or mass did not settle the structure.

Tested on: patients with myelofibrosis naïve to treatment with a JAK inhibitor
Experiment: SIMPLIFY-1 Phase 3 trial, MMB versus RUX, 24 weeks randomized treatment
Assay type: in vivo, human
Details: patients above 90 ng/mL ferritin (FIG. 14)
Procedure: In the SIMPLIFY-1 trial (NCT01969838; GS-US-352-0101), the efficacy and safety of MMB versus ruxolitinib (RUX) was studied in patients with myelofibrosis who were naïve to treatment with a JAK inhibitor. Patients (N=432) with high risk or intermediate-2 risk or symptomatic intermediate-1 risk myelofibrosis received 24 weeks of treatment with 200 mg MMB once daily or 20 mg RUX twice a day (or per label), after which all patients could receive open-label momelotinib. […] The primary endpoint was a reduction by at least 35% in the spleen volume at 24 weeks compared with baseline. […]
Survival from baseline was estimated using K-M analysis with descriptive log-rank tests for comparison applied (all p values are descriptive). […] As patients randomized to the control arm in both studies and crossed over to open label MMB after 24 weeks of randomized treatment, a valid comparison of overall survival with patients randomized to RUX or BAT/RUX vs MMB was not possible, therefore, only the MMB arm was analyzed.
Based on the findings from the Phase 2 translational biology study we retrospectively analyzed the relationship between serum ferritin, hepcidin and C-reactive protein (CRP) and the W24 TI response rates for patients randomized to MMB and RUX in the S1 study using univariate analyses and multiple logistic regression models. […]

N#CC[C@H](C1CCCC1)n1cc(-c2ncnc3[nH]ccc23)cn1 [RUX, Ruxolitinib, reference compound]
W24 TI-R by baseline ferritin cohort: much less effective
